Results are given in words; binding and its absence hold for the method and conditions named. Some results given as binding are weak or reduced against the parent protein; the word gives no strength.
Biological target: pKal complexed with HMWK bound to HUVEC cells (human) (UniProt P03952+P01042)
Experiment: ELISA; HUVEC in 96-well plates, treated with 40 nM HMWK in 20 mM HEPES, 150 mM NaCl, 2 mM CaCl2, 1 mM MgCl2, pH 7.5 + 50 uM ZnSO4, 0.5 mg/ml BSA for 1 h at 25 °C, then 3 nM pKal 1 h; biotinylated DX-2930 added 2 h, detected by streptavidin-alkaline phosphatase; only the binder purified

Amino acid sequences for entries named in this document (tags omitted). A change or cut given only in a name is not applied to a line headed by its entry.
UniProt P03952: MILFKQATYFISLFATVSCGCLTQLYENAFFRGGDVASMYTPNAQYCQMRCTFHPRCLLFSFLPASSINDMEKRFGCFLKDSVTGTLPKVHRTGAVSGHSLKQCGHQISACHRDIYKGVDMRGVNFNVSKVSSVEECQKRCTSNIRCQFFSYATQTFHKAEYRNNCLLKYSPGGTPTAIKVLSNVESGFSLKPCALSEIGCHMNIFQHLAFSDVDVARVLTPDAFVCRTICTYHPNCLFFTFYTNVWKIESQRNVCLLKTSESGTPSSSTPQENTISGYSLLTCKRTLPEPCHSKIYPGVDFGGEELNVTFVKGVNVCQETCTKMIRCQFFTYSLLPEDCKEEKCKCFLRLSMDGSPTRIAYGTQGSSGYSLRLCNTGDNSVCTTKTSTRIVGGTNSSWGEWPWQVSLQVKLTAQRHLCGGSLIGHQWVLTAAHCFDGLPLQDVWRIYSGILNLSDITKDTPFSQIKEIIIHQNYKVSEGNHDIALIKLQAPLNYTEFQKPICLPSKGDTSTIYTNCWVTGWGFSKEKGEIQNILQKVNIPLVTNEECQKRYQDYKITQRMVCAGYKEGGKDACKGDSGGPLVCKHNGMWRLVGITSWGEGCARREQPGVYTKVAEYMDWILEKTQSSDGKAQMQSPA
UniProt P01042: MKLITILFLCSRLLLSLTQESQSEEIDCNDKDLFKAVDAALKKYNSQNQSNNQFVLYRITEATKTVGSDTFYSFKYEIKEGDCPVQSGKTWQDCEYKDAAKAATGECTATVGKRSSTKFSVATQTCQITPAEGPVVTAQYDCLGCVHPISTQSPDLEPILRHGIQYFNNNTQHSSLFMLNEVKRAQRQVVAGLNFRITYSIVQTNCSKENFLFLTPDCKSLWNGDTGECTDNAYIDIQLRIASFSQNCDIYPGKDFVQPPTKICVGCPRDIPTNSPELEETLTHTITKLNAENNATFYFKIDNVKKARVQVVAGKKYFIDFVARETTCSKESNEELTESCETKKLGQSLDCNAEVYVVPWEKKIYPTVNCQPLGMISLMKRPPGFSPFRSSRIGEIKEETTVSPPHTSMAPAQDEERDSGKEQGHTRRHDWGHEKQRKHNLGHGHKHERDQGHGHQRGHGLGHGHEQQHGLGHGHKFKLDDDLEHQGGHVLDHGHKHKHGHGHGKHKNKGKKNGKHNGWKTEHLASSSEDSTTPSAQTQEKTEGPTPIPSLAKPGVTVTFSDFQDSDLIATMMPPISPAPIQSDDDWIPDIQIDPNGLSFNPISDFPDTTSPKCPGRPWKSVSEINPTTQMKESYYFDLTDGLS

binding: binds weakly
B1: C1 Inhibitor (protein, UniProt P05155 23-500)
chain: NPNATSSSSQDPESLQDRGEGKVATTVISKMLFVEPILEVSSLPTTNSTTNSATKITANTTDEPTTQPTTEPTTQPTIQPTQPTTQLPTDSPTQPTTGSFCPGPVTLCSDLESHSTEAVLGDALVDFSLKLYHAFSAMKKVETNMAFSPFSIASLLTQVLLGAGENTKTNLESILSYPKDFTCVHQALKGFTTKGVTSVSQIFHSPDLAIRDTFVNASRTLYSSSPRVLSNNSDANLELINTWVAKNTNNKISRLLDSLPSDTRLVLLNAIYLSAKWKTTFDPKKTRMEPFHFKNSVIKVPMMNSKKYPVAHFIDQTLKAKVGQLQLSHNLSLVILVPQNLKHRLEDMEQALSPSVFKAIMEKLEMSKFQPTLLTLPRIKVTTSQDMLSIMEKLEFFDFSYDLNLCGLTEDPDLQVSAMQHQTVLELTETGVEAAAASAISVARTLLVFEVQQPFLFVLWDQQHKFPVFMGRVYDPRA

Reference: publication PMC4156074
